# The supplement of paper PMC10849652
# Amino acid sequences for entries named in this document (tags omitted). A change or cut given only in a name is not applied to a line headed by its entry.
# UniProt Q8N3C7: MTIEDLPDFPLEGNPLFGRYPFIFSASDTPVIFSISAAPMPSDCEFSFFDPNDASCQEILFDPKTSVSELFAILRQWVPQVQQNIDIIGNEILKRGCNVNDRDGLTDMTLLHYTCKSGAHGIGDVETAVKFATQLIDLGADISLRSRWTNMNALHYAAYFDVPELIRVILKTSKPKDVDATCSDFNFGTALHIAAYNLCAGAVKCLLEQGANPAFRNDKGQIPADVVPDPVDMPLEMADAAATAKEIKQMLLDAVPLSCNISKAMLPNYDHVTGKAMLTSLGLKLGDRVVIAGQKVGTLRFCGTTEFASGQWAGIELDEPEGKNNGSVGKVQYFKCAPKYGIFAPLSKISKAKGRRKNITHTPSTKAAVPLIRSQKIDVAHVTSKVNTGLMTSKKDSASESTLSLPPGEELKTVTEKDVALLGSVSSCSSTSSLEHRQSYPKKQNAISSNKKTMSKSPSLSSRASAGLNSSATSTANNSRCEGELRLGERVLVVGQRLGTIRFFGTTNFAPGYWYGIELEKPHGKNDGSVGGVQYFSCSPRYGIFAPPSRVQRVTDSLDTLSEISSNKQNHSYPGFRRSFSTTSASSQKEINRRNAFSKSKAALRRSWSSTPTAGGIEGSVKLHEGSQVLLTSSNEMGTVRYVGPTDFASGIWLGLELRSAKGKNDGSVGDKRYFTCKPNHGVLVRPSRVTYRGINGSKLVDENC
# UniProt O76071: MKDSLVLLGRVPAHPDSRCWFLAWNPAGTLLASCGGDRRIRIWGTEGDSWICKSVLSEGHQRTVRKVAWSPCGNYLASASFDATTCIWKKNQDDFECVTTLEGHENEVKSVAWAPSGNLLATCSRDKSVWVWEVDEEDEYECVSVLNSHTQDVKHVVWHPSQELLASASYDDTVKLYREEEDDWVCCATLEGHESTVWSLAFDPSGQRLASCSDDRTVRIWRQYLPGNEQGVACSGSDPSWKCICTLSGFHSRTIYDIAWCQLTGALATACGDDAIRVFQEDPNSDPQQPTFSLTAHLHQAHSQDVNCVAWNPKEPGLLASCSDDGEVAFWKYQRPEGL
# UniProt Q9Y696: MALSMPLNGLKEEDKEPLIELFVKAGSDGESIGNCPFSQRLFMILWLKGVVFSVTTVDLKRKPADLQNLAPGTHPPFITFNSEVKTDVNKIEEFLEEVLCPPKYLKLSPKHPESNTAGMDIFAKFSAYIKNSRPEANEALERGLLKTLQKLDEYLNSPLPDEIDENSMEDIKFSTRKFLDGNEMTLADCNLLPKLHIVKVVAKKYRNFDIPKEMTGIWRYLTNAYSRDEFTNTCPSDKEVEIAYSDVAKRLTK
# UniProt P30085: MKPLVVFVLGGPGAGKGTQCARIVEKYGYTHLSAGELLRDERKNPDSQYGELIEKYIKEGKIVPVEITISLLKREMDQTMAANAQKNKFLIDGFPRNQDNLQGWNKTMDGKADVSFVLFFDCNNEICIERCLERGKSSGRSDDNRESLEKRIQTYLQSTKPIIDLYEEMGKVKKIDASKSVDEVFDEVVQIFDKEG
# UniProt Q96FZ7: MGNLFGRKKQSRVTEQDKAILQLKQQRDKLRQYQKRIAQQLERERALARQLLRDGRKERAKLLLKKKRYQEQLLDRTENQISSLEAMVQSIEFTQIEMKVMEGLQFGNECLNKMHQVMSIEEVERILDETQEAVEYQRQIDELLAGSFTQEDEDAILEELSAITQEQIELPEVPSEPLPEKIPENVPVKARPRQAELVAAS
# UniProt Q9Y2R0: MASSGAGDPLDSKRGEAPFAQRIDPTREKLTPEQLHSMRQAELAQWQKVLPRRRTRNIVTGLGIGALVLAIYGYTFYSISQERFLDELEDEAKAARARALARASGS
# UniProt Q9H078: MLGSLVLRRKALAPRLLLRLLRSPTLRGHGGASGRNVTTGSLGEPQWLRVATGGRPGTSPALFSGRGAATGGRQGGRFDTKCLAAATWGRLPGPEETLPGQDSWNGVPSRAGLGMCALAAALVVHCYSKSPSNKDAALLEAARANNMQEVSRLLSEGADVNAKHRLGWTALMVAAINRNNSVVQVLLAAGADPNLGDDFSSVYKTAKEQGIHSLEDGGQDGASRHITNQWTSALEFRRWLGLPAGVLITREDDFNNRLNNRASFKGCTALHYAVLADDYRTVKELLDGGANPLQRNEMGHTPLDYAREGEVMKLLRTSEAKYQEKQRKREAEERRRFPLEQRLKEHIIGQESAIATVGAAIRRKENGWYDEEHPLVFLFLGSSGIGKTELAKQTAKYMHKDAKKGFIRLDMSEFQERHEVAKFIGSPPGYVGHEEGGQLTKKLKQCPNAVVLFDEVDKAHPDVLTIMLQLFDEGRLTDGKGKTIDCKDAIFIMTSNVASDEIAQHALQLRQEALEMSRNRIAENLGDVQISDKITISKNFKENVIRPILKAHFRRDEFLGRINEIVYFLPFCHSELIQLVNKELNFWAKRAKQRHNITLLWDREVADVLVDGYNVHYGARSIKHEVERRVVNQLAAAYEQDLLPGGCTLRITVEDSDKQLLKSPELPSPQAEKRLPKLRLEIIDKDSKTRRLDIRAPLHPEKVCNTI
# UniProt Q5EBM0: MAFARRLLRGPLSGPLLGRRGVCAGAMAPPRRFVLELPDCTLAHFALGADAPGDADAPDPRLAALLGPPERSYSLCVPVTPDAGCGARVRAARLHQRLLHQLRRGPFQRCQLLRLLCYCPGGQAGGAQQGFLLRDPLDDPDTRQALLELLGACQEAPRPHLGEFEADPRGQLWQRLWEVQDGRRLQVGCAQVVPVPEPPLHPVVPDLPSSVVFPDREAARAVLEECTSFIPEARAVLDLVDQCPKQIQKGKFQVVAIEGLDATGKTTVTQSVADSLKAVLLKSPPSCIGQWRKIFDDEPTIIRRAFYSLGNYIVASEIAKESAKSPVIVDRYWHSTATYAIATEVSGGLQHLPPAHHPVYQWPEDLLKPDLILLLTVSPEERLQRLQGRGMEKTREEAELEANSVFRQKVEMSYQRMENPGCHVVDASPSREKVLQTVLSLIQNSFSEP
# UniProt Q7Z7K0: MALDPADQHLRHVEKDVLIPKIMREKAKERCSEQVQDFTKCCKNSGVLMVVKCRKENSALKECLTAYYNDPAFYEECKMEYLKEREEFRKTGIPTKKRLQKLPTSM
# UniProt Q9GZY4: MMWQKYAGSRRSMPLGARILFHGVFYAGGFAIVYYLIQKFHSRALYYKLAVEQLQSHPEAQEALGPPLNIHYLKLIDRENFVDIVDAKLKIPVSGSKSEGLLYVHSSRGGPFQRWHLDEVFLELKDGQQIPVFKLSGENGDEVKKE
# UniProt Q9BW66: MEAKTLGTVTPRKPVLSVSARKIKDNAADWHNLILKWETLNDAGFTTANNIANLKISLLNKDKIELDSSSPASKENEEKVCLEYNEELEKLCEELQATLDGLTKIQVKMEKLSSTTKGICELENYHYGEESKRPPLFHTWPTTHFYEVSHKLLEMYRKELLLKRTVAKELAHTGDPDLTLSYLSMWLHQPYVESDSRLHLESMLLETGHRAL
# UniProt Q9NRP2: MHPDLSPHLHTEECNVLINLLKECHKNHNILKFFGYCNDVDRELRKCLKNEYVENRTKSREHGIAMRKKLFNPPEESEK
# UniProt Q9H6Q4: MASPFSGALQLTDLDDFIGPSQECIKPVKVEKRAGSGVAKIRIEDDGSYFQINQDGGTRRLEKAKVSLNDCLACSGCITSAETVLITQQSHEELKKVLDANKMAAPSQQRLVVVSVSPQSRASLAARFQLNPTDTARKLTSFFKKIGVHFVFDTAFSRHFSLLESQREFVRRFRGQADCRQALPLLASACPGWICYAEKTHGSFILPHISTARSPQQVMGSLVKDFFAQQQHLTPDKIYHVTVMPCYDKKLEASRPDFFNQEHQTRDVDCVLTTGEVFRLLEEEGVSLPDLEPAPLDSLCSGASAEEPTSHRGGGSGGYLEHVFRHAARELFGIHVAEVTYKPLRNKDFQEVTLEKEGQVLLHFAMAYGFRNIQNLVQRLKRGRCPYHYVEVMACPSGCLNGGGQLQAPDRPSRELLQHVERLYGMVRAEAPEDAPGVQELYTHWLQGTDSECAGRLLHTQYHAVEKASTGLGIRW
# UniProt P39060, whole entry, looked up: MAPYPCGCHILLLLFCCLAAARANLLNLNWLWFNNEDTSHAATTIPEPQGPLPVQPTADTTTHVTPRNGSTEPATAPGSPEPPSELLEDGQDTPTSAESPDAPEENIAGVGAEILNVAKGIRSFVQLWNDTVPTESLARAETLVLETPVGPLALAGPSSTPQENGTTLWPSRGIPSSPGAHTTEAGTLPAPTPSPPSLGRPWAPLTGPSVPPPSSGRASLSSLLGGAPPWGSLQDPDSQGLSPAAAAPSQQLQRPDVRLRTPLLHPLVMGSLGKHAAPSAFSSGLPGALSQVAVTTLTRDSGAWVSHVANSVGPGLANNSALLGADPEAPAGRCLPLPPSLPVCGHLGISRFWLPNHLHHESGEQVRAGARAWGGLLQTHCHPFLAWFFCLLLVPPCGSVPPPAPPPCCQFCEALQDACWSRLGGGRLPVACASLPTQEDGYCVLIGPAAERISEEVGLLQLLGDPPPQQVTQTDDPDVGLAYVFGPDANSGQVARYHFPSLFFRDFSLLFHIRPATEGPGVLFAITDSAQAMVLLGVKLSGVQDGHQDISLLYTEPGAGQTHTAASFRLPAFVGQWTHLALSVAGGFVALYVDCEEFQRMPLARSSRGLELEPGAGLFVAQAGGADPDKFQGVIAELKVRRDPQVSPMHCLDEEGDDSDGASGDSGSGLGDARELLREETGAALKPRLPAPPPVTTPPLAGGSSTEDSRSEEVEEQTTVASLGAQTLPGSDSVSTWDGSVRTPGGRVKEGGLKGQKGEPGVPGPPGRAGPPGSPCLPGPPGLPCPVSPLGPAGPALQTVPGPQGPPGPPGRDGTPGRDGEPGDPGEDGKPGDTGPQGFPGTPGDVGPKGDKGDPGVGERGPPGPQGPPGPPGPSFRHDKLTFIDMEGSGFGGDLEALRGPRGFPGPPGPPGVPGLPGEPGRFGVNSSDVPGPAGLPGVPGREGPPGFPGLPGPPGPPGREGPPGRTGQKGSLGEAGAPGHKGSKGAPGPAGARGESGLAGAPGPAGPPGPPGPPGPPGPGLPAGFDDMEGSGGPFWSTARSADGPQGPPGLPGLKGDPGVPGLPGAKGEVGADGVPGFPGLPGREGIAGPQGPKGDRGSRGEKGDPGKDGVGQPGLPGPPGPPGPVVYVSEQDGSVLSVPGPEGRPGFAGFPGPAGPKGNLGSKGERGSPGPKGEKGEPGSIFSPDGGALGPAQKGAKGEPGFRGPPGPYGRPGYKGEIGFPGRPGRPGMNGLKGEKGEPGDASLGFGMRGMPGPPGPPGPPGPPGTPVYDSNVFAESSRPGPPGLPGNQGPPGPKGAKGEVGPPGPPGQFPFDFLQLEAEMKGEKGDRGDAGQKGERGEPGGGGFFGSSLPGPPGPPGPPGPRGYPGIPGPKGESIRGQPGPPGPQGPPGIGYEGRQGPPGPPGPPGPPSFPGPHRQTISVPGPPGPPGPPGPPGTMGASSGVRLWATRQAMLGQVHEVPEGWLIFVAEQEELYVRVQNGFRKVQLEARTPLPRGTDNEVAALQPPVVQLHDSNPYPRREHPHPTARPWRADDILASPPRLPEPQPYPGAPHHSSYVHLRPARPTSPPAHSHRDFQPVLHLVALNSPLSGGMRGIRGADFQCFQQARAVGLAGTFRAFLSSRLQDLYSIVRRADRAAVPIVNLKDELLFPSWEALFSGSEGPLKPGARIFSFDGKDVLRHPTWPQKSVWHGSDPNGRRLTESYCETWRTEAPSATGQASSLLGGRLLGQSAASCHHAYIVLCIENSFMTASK
# UniProt O15247: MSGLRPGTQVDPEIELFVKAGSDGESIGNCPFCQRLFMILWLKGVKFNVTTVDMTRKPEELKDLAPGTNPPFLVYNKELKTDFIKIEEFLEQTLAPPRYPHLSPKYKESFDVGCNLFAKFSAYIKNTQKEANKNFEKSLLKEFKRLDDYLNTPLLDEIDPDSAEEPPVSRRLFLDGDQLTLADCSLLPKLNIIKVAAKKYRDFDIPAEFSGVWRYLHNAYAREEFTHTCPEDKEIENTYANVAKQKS
# UniProt Q92600, whole entry, looked up: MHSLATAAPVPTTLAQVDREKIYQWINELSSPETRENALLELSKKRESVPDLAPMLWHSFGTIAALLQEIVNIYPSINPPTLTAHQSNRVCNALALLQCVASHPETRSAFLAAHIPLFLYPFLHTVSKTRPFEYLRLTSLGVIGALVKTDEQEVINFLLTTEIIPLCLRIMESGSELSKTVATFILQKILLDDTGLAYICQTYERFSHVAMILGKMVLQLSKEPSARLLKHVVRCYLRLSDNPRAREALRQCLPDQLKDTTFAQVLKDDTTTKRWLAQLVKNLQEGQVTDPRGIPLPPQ
# UniProt Q6FI81: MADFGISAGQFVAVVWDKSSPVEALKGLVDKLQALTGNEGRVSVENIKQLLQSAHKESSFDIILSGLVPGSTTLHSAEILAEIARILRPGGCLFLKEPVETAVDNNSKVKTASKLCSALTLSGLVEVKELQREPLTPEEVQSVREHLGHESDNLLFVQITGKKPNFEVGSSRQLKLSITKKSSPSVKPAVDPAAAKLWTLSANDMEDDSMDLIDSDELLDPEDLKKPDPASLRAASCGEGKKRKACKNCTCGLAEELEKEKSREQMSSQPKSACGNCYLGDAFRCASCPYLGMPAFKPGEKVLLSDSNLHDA
# This is one part of the list.
# Compound: Nc1ccccc1NC(=O)c1ccc(CNC(=O)OCc2cccnc2)cc1 [entinostat]
# Assay: log2 fold change, soluble protein after heating vs DMSO (PISA); higher = thermal stabilisation; K562 cells, 10 uM, 30 min; active = over 0.2 and 3.5 SD of the protein, either way, in both replicates (recomputed)
# Outline: (§1)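 Thermal stability values are relative to control samples and come from duplicates. They are expressed as log2 fold changes. For measurement, K562 cells (2×10^6 cells/mL) received 10 μM compound for 30 min, and aliquots were heated for 3 min over 48°C-58°C, pooled, and extracted at 4°C in PBS with 0.5% NP-40. Soluble protein, the supernatant after 21,000xg for 90 min, was quantified by TMTpro 16plex LC-MS/MS with equalised channel sums.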
row,Target,log2 fold change
1,CKAP5 (UniProt Q14008),inactive: 0.04
2,CMBL (UniProt Q96DG6),inactive: -0.044
3,CLIP4 (UniProt Q8N3C7),inactive: -0.133
4,CKM (UniProt P06732),inactive: 0.042
5,CMAS (UniProt Q8NFW8),inactive: -0.016
6,CIAO1 (UniProt O76071),inactive: 0.007
7,CLIC4 (UniProt Q9Y696),inactive: -0.004
8,CLCC1 (UniProt Q96S66),inactive: -0.008
9,CLIP1 isoform 1 (UniProt P30622),inactive: -0.024

# Compound: O=C(CCCCCCC(=O)Nc1ccccc1)NO [vorinostat]
# Assay: as above
# Outline: as §1
row,Target,log2 fold change
1,CHURC1 isoform 2 (UniProt Q8WUH1),inactive: -0.038
2,CMPK1 (UniProt P30085),inactive: 0.022
3,CHMP6 (UniProt Q96FZ7),inactive: -0.048
4,COA3 (UniProt Q9Y2R0),inactive: -0.021
5,CLPB isoform 2 (UniProt Q9H078),inactive: 0.098
6,CMPK2 (UniProt Q5EBM0),inactive: -0.003
7,CMC1 (UniProt Q7Z7K0),inactive: -0.097
8,COA1 (UniProt Q9GZY4),inactive: 0.022
9,CINP isoform 3 (UniProt Q9BW66),inactive: 0.005
10,COA7 (UniProt Q96BR5),inactive: 0.011
11,CMC2 (UniProt Q9NRP2),inactive: -0.119
12,CIAO3 (UniProt Q9H6Q4),inactive: -0.001
13,CKMT1A (UniProt P12532),inactive: 0.033
14,COL18A1 (UniProt P39060),inactive: 0.071
15,CNPY2 (UniProt Q9Y2B0),inactive: 0.007
16,CLIC2 (UniProt O15247),inactive: 0.091

row,Target,log2 fold change
1,CLPTM1 (UniProt O96005),inactive: -0.015
2,CLGN (UniProt O14967),inactive: -0.003
3,CLCN7 (UniProt P51798),inactive: 0.054
4,CNOT3 (UniProt O75175),inactive: 0.081
5,CLDND1 (UniProt Q9NY35),inactive: -0.001
6,CNOT9 isoform 2 (UniProt Q92600),inactive: -0.007
7,CIAPIN1 (UniProt Q6FI81),inactive: 0.021
8,CKAP5 (UniProt Q14008),inactive: 0.113
9,CMBL (UniProt Q96DG6),inactive: 0.023
10,CLIP4 (UniProt Q8N3C7),inactive: -0.048
11,CKM (UniProt P06732),inactive: 0.062
12,CMAS (UniProt Q8NFW8),inactive: 0.029
13,CIAO1 (UniProt O76071),inactive: -0.041
14,CLIC4 (UniProt Q9Y696),inactive: -0.031
15,CLCC1 (UniProt Q96S66),inactive: -0.025
16,CLIP1 isoform 1 (UniProt P30622),inactive: -0.023
